# This is one part of the list. Further columns of the screen follow, without active or inactive calls. The note in brackets gives the kind of curve behind each potency; many fits are weak.
# Biological target: Caspase-1 (Homo sapiens) (UniProt P29466)
# Assay: Concentration-Response Counterscreen for Redox Active Inhibitors of Caspase-1: Summary
# Details: caspase-1 enzyme activity, redox counterscreen (DTT/Cys/catalase)
# Description: NIH Molecular Libraries Screening Centers Network [MLSCN]
# NIH Chemical Genomics Center [NCGC]
# PI Name: Dr. James Wells,
# Dr. Enrique Perez-Paya, Dr.Janice Williams, Dr. Dennis Wolan, a person
# The caspases (Cysteine Aspartyl Protease) comprise a related family of 14 dimeric proteases that are critical mediators of apoptosis (programmed cell death) and inflammation. The caspases represent an important class of drug targets for stroke, ischemia, cancer and inflammatory diseases. […] One goal of this project was to identify compounds that act as allosteric inhibitors via stabilizing the procaspase form of the enzyme. Previous work in Well's laboratory has shown that such allosteric inhibitors can be identified and these act by binding at the dimer interface of enzyme (Hardy, Lam et al., 2004).
# The biochemical assay was configured using purified caspase 1 at a high enzyme concentration to promote formation of the homodimers and thus facilitate the identification of allosteric inhibitors. The overall goal was to identify reversible inhibitors with better drug-like properties than the currently available set of aspartyl-containing peptidomimetics that covalently bind the active site. Caspase 1 was assayed using the profluorescent substrate Ac-WEHD-AFC. After initiation of the assay with substrate the plates were rapidly read using an automated robotic system (Kalypsys, Inc.) to maintain consistent timing. A kinetic mode of detection was used where the initial rate was collected (estimated final product formation was ~10%). Product formation was also measured after 1 hour. […]
# Caspase 1 was prepared in buffer (50 mM HEPES pH 7.5, 50 mM KCl, 200 mM NaCl, 0.1% CHAPS and either 10 mM DTT, 10 mM Cys (Aldrich cat# 861677), or 10mM DTT and 50 units/well catalase (from bovine liver, Sigma cat#100)) at a concentration of 66.6 nM and 3 uL was dispensed to all wells using black solid Kalypsys 1536-well plates. […] The plates were then exposed using 405 nm excitation/520 nm emission filters for 4 sec and read at 20 sec intervals for 3 min. […]
compound,measurement,setting,value
COc1cc2c(cc1OC)-c1c(OC)c(OC)c(C=O)c3c1[C@H](C2)N(C)CC3,AC50,measured here: DTT 1 h read,"31.6 µM [falling, partial curve]"
same,AC50,measured here: DTT rate,"25.1 µM [falling, partial curve]"
same,AC50,measured here: cysteine rate,"31.6 µM [falling, partial curve]"
